Experimental data published in PubChem BioAssay AID1053188 (Broad Institute, 2014).
Several values for one entry are separate records, joined by “and”; a condition that tells them apart may be missing. Equal entries are not always repeated. The campaign covered roughly 83,000 compounds. About 780 (0.94%) were called active. Inconclusive means that the source gave no clear call. Such entries were picked first, then a sample of the others.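 How the source made its calls: active means mean inhibition of at least 50% with a set share of replicates also reaching that level; inconclusive means no clear call, values can overlap the other calls; inactive means the rest.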

Assay: CD40 pathway blockade in BL2 B cells – cell-based, luciferase reporter, single point, primary screen (AID 1053188);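 further: 0% = neutral control wells and 100% = IKK inhibitor VII at 50 µM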
Details: BL2 NF-kB luciferase reporter, CD40L-induced, 4 h, stronger effect = higher value; at 10 µM unless noted

Structure (SMILES) | inhibition
COC(=O)c1nc(NC(=O)c2ccc(F)cc2)n[nH]1 | inconclusive: 47.1%
CC(C)CCCCCCCCCCCCC(=O)NCC(=O)NC1C(O)C(O)C(Nc2ncnc3nc[nH]c23)OC1C(O)CO (stereo not drawn) | active: 104%
COc1cc(N2C(=O)C=CC2=O)ccc1N1C(=O)C=CC1=O | active: 109%
CCc1csc(N2[C@@H](C#N)[C@H](c3ccc(C#Cc4ccc(F)cc4)cc3)[C@@H]2CO)n1 | inactive: 1.41% [at 25 µM]
c1ccc(CCNc2nc(-c3ccccn3)nc3ccccc23)cc1 | active: 43.5%
CC(=O)NCCCC(=O)NC(CCC(=O)OCc1ccccc1)C(=O)OCc1ccccc1 (stereo not drawn) | inconclusive: 18.8%
COc1cccc(NC(=O)Nc2nccc(C)n2)c1 | inconclusive: 48.1%
NCC[C@@H]1CC[C@@H](NS(=O)(=O)c2ccc(Cl)cc2)[C@@H](CO)O1 | inactive: -3.57% [at 25 µM] and inactive: -3.77% [at 25 µM]
CCCNC(=O)N1[C@H](C#N)[C@@H](c2ccc(-c3cccc(OC)c3)cc2)[C@H]1CO | inconclusive: 45.4% [at 25 µM]
C[C@H]1CN([C@@H](C)CO)C(=O)c2cccc(NC(=O)Nc3ccc(F)cc3)c2O[C@H]1CN(C)S(=O)(=O)c1ccc(Cl)cc1 | inconclusive: 38.9% [at 25 µM]
COc1ccc(Cl)cc1NC(=O)Nc1cc(C)nc2ccccc12 | inconclusive: 45.5% [at 25 µM]
CSc1nsc(SC)c1C(N)=O | active: 78.3%
C[C@@H]1CN([C@H](C)CO)C(=O)c2c(c3ccccc3n2C)-c2ccccc2CO[C@@H]1CN(C)S(=O)(=O)c1ccccc1C#N | inconclusive: 48.2% [at 25 µM]
C[C@@H]1C[C@H]2[C@@H]3CCC4=CC(=O)C=C[C@]4(C)[C@@]3(F)[C@@H](O)C[C@]2(C)[C@H]1C(=O)CO | inconclusive: 43.6%
O=C(CCCc1ccccc1)NCc1cn2ccsc2n1 | inactive: 3.37%
COC(=O)c1ccccc1OCCOCCOc1cccc2ccc(C)nc12 | inactive: 7.52%
Cc1noc(C)c1S(=O)(=O)N(C)C[C@@H]1OCc2ccccc2-c2c(n(C)c3ccccc23)C(=O)N([C@@H](C)CO)C[C@@H]1C | inconclusive: 48.5% [at 25 µM]
CCCCOc1ccc(C(=O)CCN2CCCCC2)cc1 | inconclusive: 20.3%
COc1cccc(NC(=O)N(C)C[C@@H]2Oc3ncc(/C=C/c4ccccc4)cc3C(=O)N([C@@H](C)CO)C[C@H]2C)c1 | inactive: 11.2% [at 25 µM]
O=C(O)c1ccccc1Nc1cccc(C(F)(F)F)c1 | inconclusive: 16.3%

Arranged by molar mass (rising): part of the list above
Structure (SMILES) | inhibition
O=C(CCCc1ccccc1)NCc1cn2ccsc2n1 | inactive: 3.37%
NCC[C@@H]1CC[C@@H](NS(=O)(=O)c2ccc(Cl)cc2)[C@@H](CO)O1 | inactive: -3.57% [at 25 µM] and inactive: -3.77% [at 25 µM]
CC(=O)NCCCC(=O)NC(CCC(=O)OCc1ccccc1)C(=O)OCc1ccccc1 (stereo not drawn) | inconclusive: 18.8%

More structures:

Structure (SMILES) | inhibition
N#C[C@H]1[C@@H](c2ccc(C#Cc3cccc(F)c3)cc2)[C@H](CO)N1C(=O)C1CCCC1 | inactive: -5.95%
CN(C)CC(=O)N1[C@H](C#N)[C@H](c2ccccc2-c2cccc(C(=O)N(C)C)c2)[C@H]1CO | inactive: -4.98% [at 25 µM]
NS(=O)(=O)c1cc2c(cc1C(F)(F)F)NC(Cc1ccccc1)NS2(=O)=O (stereo not drawn) | inconclusive: 24.1%
COc1ccc(S(=O)(=O)Nc2ccc3c(c2)C(=O)N([C@@H](C)CO)C[C@@H](C)[C@H](CN(C)Cc2ccc(C(F)(F)F)cc2)OCCCC[C@@H](C)O3)cc1 | inconclusive: 43.9% [at 25 µM]
Cc1ccc(-c2cc(C(=O)N3CC(C)OC(C)C3)c3ccccc3n2)o1 (stereo not drawn) | active: 114%
COc1ccc(S(=O)(=O)Nc2ccc3c(c2)C(=O)N([C@H](C)CO)C[C@@H](C)[C@@H](CN(C)Cc2ccc(C(F)(F)F)cc2)OCCCC[C@@H](C)O3)cc1 | inconclusive: 35.4% [at 25 µM]
O=C(C[C@H]1CC[C@@H]2[C@H](COC[C@H](O)CN2Cc2cc(F)ccc2F)O1)NCc1ccc(Oc2ccccc2)cc1 | inconclusive: 49.6% [at 25 µM]
Cc1ccc(C=C2C=C(c3ccccc3)OC2=O)cc1 | inactive: -33.1%
COc1cccc(S(=O)(=O)N(C)C[C@@H]2OCc3ccccc3-c3c(n(C)c4ccccc34)C(=O)N([C@@H](C)CO)C[C@@H]2C)c1 | inconclusive: 47.3% [at 25 µM]
N#C[C@@H]1[C@H](c2ccc(C#CC3CCCC3)cc2)[C@H](CO)N1C(=O)Cc1ccccn1 | inconclusive: 49.2% [at 25 µM]
CC(C)c1ccc(OCc2ccc(C(=O)O)o2)cc1 | inconclusive: 21.3%
CCc1cnc(N2[C@H](C#N)[C@@H](c3ccc(C#CC(C)C)cc3)[C@H]2CO)s1 | inconclusive: 48.8% [at 25 µM]
C[C@@H]1CN([C@@H](C)CO)C(=O)c2cc(NC(=O)Cc3cn(C)c4ccccc34)ccc2O[C@H]1CN(C)S(C)(=O)=O | inactive: -4.09%
COC(=O)[C@@H]1[C@@H](CO)[C@@H]2Cn3c(ccc(C4=CCCC4)c3=O)[C@@H]2N1C(=O)C1CCCC1 | inactive: -9.82%
COc1ccc([C@H]2CC=CC[C@@H](C)Oc3ccccc3C(=O)N(C)[C@H](C(C)C)C(=O)N2)c(OC)c1 (mixture of isomers) | inactive: 7.02% [at 25 µM]
C[C@@H]1CCCCO[C@@H](CN(C)S(=O)(=O)c2ccc(Cl)cc2)[C@H](C)CN([C@H](C)CO)C(=O)c2cc(NC(=O)Nc3ccc(C(F)(F)F)cc3)ccc2O1 | inconclusive: 33% [at 25 µM]
N#C[C@@H]1[C@@H](c2ccc(C#CC3CCCCC3)cc2)[C@H](CO)N1C(=O)Nc1ccc(F)cc1 | inconclusive: 48.8% [at 25 µM]
COc1ccc(CNCCC(c2ccc(F)cc2)c2ccc(OC(C)C)cc2)cc1OC (stereo not drawn) | inconclusive: 29.6%
N#C[C@H]1[C@@H](c2ccccc2-c2cccc(F)c2)[C@H](CO)N1C(=O)CN1CCOCC1 | inactive: -7.3% [at 25 µM]
COc1ccc(CN2CC3(CN(C(=O)Cc4ccccc4)C3)c3c([nH]c4cc(OC)ccc34)[C@H]2CO)cc1 | inconclusive: 46.8% [at 25 µM]

For reference, some entries already given.
Structure (SMILES) | inhibition
C[C@@H]1CN([C@@H](C)CO)C(=O)c2cc(NC(=O)Cc3cn(C)c4ccccc34)ccc2O[C@H]1CN(C)S(C)(=O)=O | inactive: -4.09%
COC(=O)[C@@H]1[C@@H](CO)[C@@H]2Cn3c(ccc(C4=CCCC4)c3=O)[C@@H]2N1C(=O)C1CCCC1 | inactive: -9.82%

Next part.

Structure (SMILES) | inhibition
CC1CNCCN1S(=O)(=O)c1cccc2cnccc12 (stereo not drawn) | active: 31.7%
Cc1ccc(C(CC(=O)NCc2ccco2)c2ccc(OC(C)C)cc2)cc1 (stereo not drawn) | inconclusive: 26.4%
CCN(CC(=O)Nc1c(F)cccc1F)C(=O)/C=C/c1ccc(C)o1 | active: 84%
N#Cc1cccc(-c2ccc(C3[C@@H]4CN(C(=O)Nc5ccc(C(F)(F)F)cc5)C[C@H]3N4)cc2)c1 (stereo partly drawn) | inconclusive: 47% [at 25 µM]
FC(F)(F)c1nnc2ccc(NCc3cccnc3)nn12 | inactive: 4.54%
C[C@@H]1CN([C@@H](C)CO)C(=O)c2c(c3ccccc3n2C)-c2ccccc2CO[C@@H]1CN(C)C(=O)c1cc(Cl)cc(Cl)c1 | inconclusive: 48.7% [at 25 µM]
Cc1noc(C)c1S(=O)(=O)Nc1ccc2c(c1)C(=O)N([C@H](C)CO)C[C@H](C)[C@@H](CN(C)C(=O)Nc1cccc3ccccc13)OCCCC[C@H](C)O2 | inconclusive: 42.9% [at 25 µM]
COc1ccc(-c2ccc3c(c2)[C@H]2[C@H](CCN2C(=O)NC2CCCC2)[C@H](CO)N3C)cc1 | inactive: -8.23%
C=C1C(=O)OC2C=C(CO)CCC=C(CO)CC(OC(=O)C(C)C)C12 (stereo not drawn) | active: 87.2%
COc1ccccc1NC(=O)N1CC(=O)N2[C@H](CO)[C@@H](c3ccc(C#CC(C)C)cc3)[C@H]2C1 | inactive: 16.1% [at 25 µM]
C[C@H]1CN([C@@H](C)CO)C(=O)c2c(c3ccccc3n2C)-c2ccccc2CO[C@@H]1CN(C)C(=O)Nc1ccccc1C(F)(F)F | inconclusive: 49.7% [at 25 µM]
CO[C@H]1CN(C)C(=O)c2cc(NC(=O)C3CCC3)ccc2OC[C@H](C)N(Cc2cccnc2)C[C@H]1C | inactive: -4.61%
Cc1ccc2c(c1)C(O)(CC(=O)/C=C/C=C/c1ccccc1)C(=O)N2 (stereo not drawn) | inconclusive: 14.1%
O=C(c1ccc(O)cc1)c1ccc(O)cc1O | inconclusive: 11.8%
CN1C(=O)c2cc(NC(=O)c3ccc(F)c(F)c3)ccc2OC[C@@H]2O[C@H](CC(=O)N3CCCCC3)CC[C@@H]21 | inactive: 7.45% [at 25 µM]
C[C@H]1CN([C@@H](C)CO)C(=O)c2c(c3ccccc3n2C)-c2ccccc2CO[C@@H]1CN(C)Cc1cccc(C(F)(F)F)c1 | active: 60.6% [at 25 µM]
COc1ccc(-c2onc(C)c2-c2ccc(C(=O)OC(C)C)o2)c(O)c1 | active: 33.5%
COc1ccc(COC(=O)CN2C(=O)NC3(CCCC3)C2=O)cc1F | inactive: 5.55%
